In US20040235889A1, “Carbonic anhydrase activator for enhancing learning and memory” (priority 2001, published 2004):
For at least one compound, name, drawing or mass did not settle the structure.

Test system: CA1 pyramidal cells
Assay: Intracellular recordings of CA1 pyramidal neurons in hippocampal slices (IPSP/EPSP, GABAergic synaptic switch)
Format: cell-based, rat
Details: FIG. 1a-c; KYN 500 μM 20 min; BIC 1 μM 30 min; phenylalanine 100 μM alone
Protocol: Brain Slices. Male Sprague-Dawley rats (150-180 g) were anesthetized with pentobarbital and decapitated. The hippocampal formation was removed and sliced (400 μm) with a McIllwain tissue chopper (Sun et al., 1999). Slices were maintained in an interface chamber Medical systems Corp., Greenvale, N.Y.) at 31° C. with continuous perfuinon of artificial cerebrospinal fluid. Artificial cerebrospinal fluid consisted of 125 mM NaCl, 3 mM KCl, 1.3 mM MgSO4, 2.4 mM CaCl2, 26 mM NaCHO3, 1.25 mM NaH2PO4, and 10 mM C6H12O6.
Electrophysiology. Intracellular recordings were obtained from CA1 pyramidal neurons using glass micropipette electrodes filled with 2 M potassium acetate (pH 7.25), with measured tip resistance in the range 70 to 120 MΩ.-Cells that show obvious accommodation, an identifying characteristic of pyramidal cells, were used in the study. […] Signals were amplified, digitized, and stored using AxoClamp-2B amplifier and DigiData 1200 with the P-clamp data acquisition and analysis software (Axon Instruments, Foster City, Calif.). Stratum pyramidale, stratum radiatum, and/or stratum oriens were stimulated (about 200 μm from the recording electrode), using bipolar electrodes constructed of Teflon-insulated PtIr wire (25 μm in diameter, the approximate thickness of stratum pyramidale; FHC Inc., Bowdoinham, Me.). […]

CN1CCc2cc3c(cc2[C@H]1[C@@H]1OC(=O)c2c1ccc1c2OCO1)OCO3 [bicuculline, reference compound]
effect on IPSP evoked by single-pulse stimulation of stratum pyramidale (in words): eliminated
